Laboratory results taken from the supplement of paper PMC9578143, “Small-Molecule Ebselen Binds to YTHDF Proteins Interfering with the Recognition of N^6-Methyladenosine-Modified RNAs” (ACS Pharmacology & Translational Science, 2022).
The list shows a part of the results. Plates or batches differ in their baseline, so values are only roughly comparable.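 Hits were defined as a z-score below −3.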

Target: T1, YTHDF1 YTH domain (aa 365-554) (UniProt Q9BYJ9)
T1 sequence (whole entry): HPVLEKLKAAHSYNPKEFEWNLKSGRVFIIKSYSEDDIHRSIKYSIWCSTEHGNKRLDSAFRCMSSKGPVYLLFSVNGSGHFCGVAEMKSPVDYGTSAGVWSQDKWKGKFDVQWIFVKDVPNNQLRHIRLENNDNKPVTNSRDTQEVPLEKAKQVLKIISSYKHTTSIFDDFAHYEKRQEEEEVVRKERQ
Assay: tryptophan fluorescence intensity z-score (mean); higher = higher fluorescence, less quenching (negative = binding / quenching)
Settings: 10 µM

Tryptophan fluorescence intensity z-score, inactive:
CC1=C(/C=C/C(C)=C/C=C/C(C)=C/C(=O)O)C(C)(C)CCC1 (plate: M 7-8) 0.223, CC(=O)O[C@@H]1CC2C(C)(C)[C@H](O)C=C[C@]2(C)C2CC[C@@]3(C)[C@H](c4ccoc4)OC(=O)C4OC43[C@@]21C (some centres not stated) (plate: M 17-18) 0.166, C=CCCCCCCCCCCCc1ccco1 (plate: M 21-22) 0.0342, CN(C)CCOC(c1ccccc1)c1ccccc1 (plate: M 3-4) -0.0311, CN(C)CC/C=C1/c2ccccc2Sc2ccc(Cl)cc21 (plate: M 7-8) -0.0324, CC(=O)O[C@H]1C[C@@H](OC(C)=O)C(C)(C)[C@@H]2C[C@@H](OC(C)=O)[C@]3(C)[C@H](CC[C@@]4(C)[C@H](c5ccoc5)OC(=O)[C@H]5O[C@@]534)[C@@]12C (plate: M 13-14) 0.374, CC(=O)[C@H]1CC[C@H]2[C@@H]3CCC4=CC(=O)CC[C@]4(C)[C@H]3CC[C@]12C (plate: M 5-6) -0.539, CCCN(CCC)S(=O)(=O)c1ccc(C(=O)O)cc1 (plate: M 5-6) 0.169, CO/N=C(\C(=O)NC1C(=O)N2C(C(=O)O)=C(CSc3nc(=O)c(=O)[nH]n3C)CS[C@H]12)c1csc(N)n1 (some centres not stated) (plate: M 7-8) -0.202, CCN(CC)C(=O)c1cccc(C)c1 (plate: M 13-14) 0.179, C[C@]12CC[C@@H]3c4ccc(O)cc4CC[C@H]3[C@@H]1CC[C@@H]2O (plate: M 3-4) 0.684, COc1ccc(-c2coc3c(O)c(OC)ccc3c2=O)cc1 (plate: M 15-16) 0.151, CN(C)CCN(Cc1ccccc1)c1ccccn1 (plate: M 5-6) 0.281, C=CC1=C(C)c2cc3[nH]c(cc4nc(cc5[nH]c(cc1n2)c(C)c5CCC(=O)O)C(CCC(=O)O)=C4C)c(C)c3C=C (plate: M 17-18) -0.0461, COc1ccc2c(c1)OCC(Cc1ccc(O)c(OC)c1)C2=O (configuration not stated) (plate: M 15-16) -0.0385, C[n+]1cc2c3c(ccc2c2ccc4cc5c(cc4c21)OCO5)OCO3 (plate: M 1-2) 0.193, Clc1ccc(CSC(Cn2ccnc2)c2ccc(Cl)cc2Cl)cc1 (configuration not stated) (plate: M 7-8) -0.675, Nc1ncnc2c1ncn2[C@@H]1O[C@H](CO)[C@@H](O)[C@H]1O (plate: M 1-2) 0.0438, Cc1cc(=O)oc2cc(O)c(O)cc12 (plate: M 17-18) 0.0567, N[C@@H](Cc1cc(I)c(Oc2cc(I)c(O)c(I)c2)c(I)c1)C(=O)O (plate: M 5-6) -0.288, COc1cc(O)c(C(C)=O)c(O)c1 (plate: M 19-20) 0.109, CNCc1ccccc1 (plate: M 21-22) 0.403, O=C(O)CCCCCCCCCCCC[C@@H]1C=CCC1 (plate: M 17-18) -0.237, COc1cc(OC)c2c(=O)c(O)c(-c3ccc(OC)c(OC)c3)oc2c1 (plate: M 17-18) 0.0921, COc1cccc2c1C(=O)c1c(O)c3c(c(O)c1C2=O)C[C@@](O)(C(=O)CO)C[C@@H]3O[C@H]1C[C@H](N)[C@H](O)[C@H](C)O1 (plate: M 11-12) -1.12, CC1(C)S[C@@H]2[C@H](NC(=O)[C@H](N)c3ccc(O)cc3)C(=O)N2[C@H]1C(=O)O (plate: M 1-2) -0.112, OCCOCCN1CCN(C2=Nc3ccccc3Sc3ccccc32)CC1 (plate: M 9-10) -0.171, Cc1cc(O)c(C)c(O)c1C(=O)O (plate: M 15-16) 0.322, CN[C@@H]1[C@H](O[C@H]2[C@H](O[C@H]3[C@H](O)[C@@H](O)[C@H](N=C(N)N)[C@@H](O)[C@@H]3N=C(N)N)O[C@@H](C)[C@]2(O)C=O)O[C@@H](CO)[C@H](O)[C@H]1O (plate: M 5-6) 0.0615, N=C(N)NC(=N)Nc1ccccc1 (plate: M 23-24) 0.653, COc1ccc2oc(-c3ccccc3OC)cc(=O)c2c1 (plate: M 23-24) -0.205, Fc1ccc(C(c2ccc(F)cc2)N2CCN(C/C=C/c3ccccc3)CC2)cc1 (plate: M 7-8) 0.0504, CCCCC(=O)O[C@H]1CC[C@H]2[C@@H]3CCc4cc(O)ccc4[C@H]3CC[C@]12C (plate: M 3-4) 0.182, CN(N=O)C(=O)N[C@H]1C(O)O[C@H](CO)[C@@H](O)[C@@H]1O (mixture of isomers) (plate: M 5-6) -0.0197, c1ccc2c(Cc3c[nH]c4ccccc34)c[nH]c2c1 (plate: M 23-24) 0.236, CO/N=C(\C(=O)N[C@@H]1C(=O)N2C(C(=O)OCOC(=O)C(C)(C)C)=C(/C=C\c3scnc3C)CS[C@H]12)c1csc(N)n1 (plate: M 11-12) -0.885, CC1=C(CCC(=O)O)c2cc3[nH]c(cc4nc(cc5[nH]c(cc1n2)c(C)c5C(C)O)C(C)=C4C(C)O)c(C)c3CCC(=O)O (configuration not stated) (plate: M 17-18) -0.726, COc1ccc(CCN(C)CCCC(C#N)(c2ccc(OC)c(OC)c2)C(C)C)cc1OC (configuration not stated) (plate: M 13-14) 1.18, CCCc1cc(=O)[nH]c(=S)[nH]1 (plate: M 5-6) 0.305, C[C@]12CCC(=O)C=C1CC[C@@H]1[C@@H]2[C@@H](O)C[C@@]2(C)[C@H]1CC[C@]2(O)C(=O)CO (plate: M 1-2) 0.552, CC1(C)C(=O)C=C[C@]2(C)[C@H]3CC[C@@]4(C)[C@H](c5ccoc5)OC(=O)[C@H]5O[C@]54[C@]3(C)C(=O)C[C@@H]12 (plate: M 13-14) 0.373, Oc1ncnc2[nH]ncc12 (plate: M 1-2) 0.331
